Results as given in PubChem BioAssay AID1508600 (Functional Genomics Laboratory (NCATS/FGL), 2020).
Screen size: about 53,000 sequences; about 3,700 (7%) were called active.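 Rule for the calls: active = gene knockdowns whose robust z-score for IL-1 alpha signal is at least 2 or at most -2, so actives lie on both sides; inactive = the rest.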 Some of the results follow.

assay: Components of the Cytosolic LPS Sensing Pathway: Gene Identification via Genome-wide siRNA Screen; conditions: RAW264.7 macrophages, IL-1a HTRF, actives lie on both sides, screened at 100 nM (by protocol), cells primed 5 h with Pam3CSK4 first;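 note: robust z of the log signal after scaling to non-targeting control siRNA wells of the plate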
Outline: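 RAW264.7 mouse macrophages reverse-transfected with single siRNAs (100 nM final) for 48h, primed with Pam3CSK4 for 5 hours, then transfected with LipidA for 24 hour. Supernatant IL-1a read by HTRF; values normalized to negative-control median, log-transformed robust z-scores.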

Sequence	z-score
GGAUGAACUGACUAAAAUATT against Fmn1	inactive: 1.24
GGACCAUCGAAGAUGACUUTT against Pus1	inactive: -0.678
GGUGAUGUUUUAUGGCAGGTT against Olfr1335	inactive: 0.329
GGACGUGCUCCUUAAACUCTT against Snx8	inactive: 1.16
GCUGAGAAUCGUUUAAAUGTT against Ugt2a3	inactive: 0.00662
GGCGAAAUCUGCUAGAGUATT against Tppp3	active: 2.3
GCGAUUCAAACUUAUUCGATT against Pcdhb15	inactive: 0.565
GGAUUCAAAGUACCAAGUGTT against Cfap43	inactive: 1.21
GCAAAUGCACACUCUAGGATT against Ptprn2	inactive: -0.0741
GGAAAUAAAGUCCAUAGAATT against B3gnt3	inactive: 0.00261
GGAAUUCAGCAGUCAACUGTT against Krt15	inactive: -0.629
GCAUGUAGACUACAACGUGTT against Myoz1	inactive: -1.27
GGACUUAUUUCUUUAAGGATT against Mmp17	inactive: -0.567
GCUUAAGCCGGGUAAUAUCTT against Ccl6	inactive: 1.41
GCAGUACCUGUUCAGUUCGTT against Slc26a4	inactive: -0.586
GGAGAAAUAUGUAUGUACATT against Ece2	active: 2.01
GGCAACUUAGGAGUUAGACTT against Pgam5	inactive: 0.533
CCUGAGAUUGGGAAAUUCUTT against Engase	active: 2.02
GGCCAACUCUAUUUUGAAGTT against Lrp2bp	inactive: 0.362
GGUUUGGUGUCAGGUGACATT against Olfr1181	active: -2.05
GGCUUAAGGCUAAUGGUCUTT against Fxyd5	inactive: -0.778
GGCAUAUAUACAUGCCUGCTT against Vmn1r215	inactive: 0.833

Sequence	z-score
CCCUAUACAGCGUACCCAATT against Eya2	inactive: -0.754
GGUUGGUUUGGAGAAGGCATT against Krt35	active: 2.91
GGACAACCUGUUGACCUAGTT against Uba5	inactive: -1.97
GGAGGCAAAAUCUUUUGUATT against Kcnk10	inactive: -1.27
GGUGUGUGAGAUUAAAAGCTT against Ces2a	inactive: -0.485
CGCCCGAAGCAAUAAAGAGTT against Rpl28	inactive: 0.121
GCCGAACAUACUGAACUGCTT against B2m	inactive: 0.622
GGAAACUGGACAAGUCUUCTT against Mpnd	inactive: -0.392
GGAGAACAAACUGAGGCACTT against Tspo2	inactive: -1.89
CGCAGAAAGAGCAUCAGAUTT against Atg9a	active: -2.42
GGAUGAGGAGGAUACAAAGTT against Eif3c	inactive: 0.228
CCUAUAUUCCAUGGAUUCUTT against Zwilch	inactive: -0.292
GGUUGUAUUGAGGUCAAGGTT against Olfr1462	inactive: -0.933
GCCGUAUGUUGAUAUCUACTT against Ms4a1	inactive: 0.921
GCAGACAAUUGGUUUGAUUTT against Armcx6	inactive: -0.819
GCAAACAGCUAGUAAAAUGTT against Cyth3	inactive: -0.83
GGCAUUUAAAUCUGUGUGUTT against Slc39a6	inactive: -0.471
GCUUCUCAGAAGAUGUACUTT against Rgs16	inactive: -1.06
GCUUACCUGAGAUGUGCUCTT against Dbx1	inactive: -1.3
GGGUAAAAUUAUUCUCAGGTT against 1600012H06Rik	inactive: 0.172
CCACCACAAGUUUCCAUGUTT against Rnf17	inactive: -0.532
GGAAUGUGAACCUUAUAGATT against Tmem30a	inactive: -0.553

Exported as labelled records: part of the list above
CCCUAUACAGCGUACCCAATT against Eya2
  z-score: inactive: -0.754
GGACAACCUGUUGACCUAGTT against Uba5
  z-score: inactive: -1.97
GGUUGUAUUGAGGUCAAGGTT against Olfr1462
  z-score: inactive: -0.933
GGGUAAAAUUAUUCUCAGGTT against 1600012H06Rik
  z-score: inactive: 0.172

More entries.

Sequence	z-score
GGUCAUUCCCAUUAAACAGTT against Emc8	active: -2.57
GGCAACCAAAGUUAGUGUGTT against Ifi204	inactive: -0.147
GGGAACCUCUGAAAAGAGGTT against Teddm1b	inactive: 0.409
GCCUCGACCAGUUUAAUCATT against Vwa5a	inactive: -0.119
GCCAUCACGAAAAUUCUAGTT against Tufm	inactive: -0.665
GGUGGUUCACAAAUACUGUTT against Agtpbp1	inactive: 0.264
CCUGGCAGAUGGAUUCGUATT against Kif6	inactive: 0.223
GGUUUCUGCCAUCCAUCAGTT against Zfa-ps	inactive: -0.705
GCUCGUACAUCUAUGGCUATT against Psmb6	inactive: -0.633
GGAUGAUACUUCAUUACACTT against Ankrd12	inactive: -0.727
GCUCGAAGAAAGGCCCUGATT against B430306N03Rik	inactive: -0.509
GGGAGACUCUCAUUUAAAUTT against Casp3	inactive: 0.406
GGAGUUGAAAGGAGUGAGCTT against Cadm4	inactive: -1.47
GGAAUGGAACACAAAUAGCTT against Kdelr2	inactive: 0.191
GGUAUUAUGACCAGAUUAUTT against Plxnb3	inactive: 0.736
GGGAAGAUCAGCUUUCAUATT against Pak1ip1	inactive: -0.896
GGAGAACAGUUUCAAGAUGTT against Rnf152	inactive: -0.487
CCACGUCCUAAGAGACAUUTT against Eps8l3	inactive: 0.262
GGAAGAACAAAAAUGCAAGTT against Irf8	inactive: 0.0325
GGCGGUGAAGUCUAAGGCATT against H1f5	inactive: 1.54
GGACAAAACCAUCUCCUUCTT against Olfr17	inactive: 0.324
GGACCUGACCUUGCUGUUATT against Fancg	inactive: 1.57

Sequence	z-score
GCUCUAACGUAUGAUGCCATT against Nde1	inactive: 0.206
GGAAUAUAUCUGCUUUAUCTT against Gphb5	inactive: 0.0714
GGAGCAGGUAAACAUGUCUTT against Fpr-rs7	inactive: -0.218
GCGAUGAGUAUAUCAAGUUTT against Hdac2	inactive: 1.61
CCAGCUUCCUCGUAAGUGATT against Hsf4	inactive: -1.71
GGAGAUGUAUGCCGCUUAUTT against Lcat	inactive: 1.23
GGAGAAAGGUGGUACCAAGTT against Deaf1	inactive: 1.12
GGCACCCGAGUAGGUCAAATT against Carhsp1	active: 6.02
GCUUGAAGUCUCUUGCUGGTT against Nhlrc2	active: 3.53
GCUGACAAAACUGCUAAACTT against Ctnnb1	inactive: 0.948
GGAUUAGGAUCAGCAGGAUTT against Accs	inactive: 1.01
GGAUCUAAAGGUGAGUCAATT against Dcaf12l1	inactive: -0.388
GGAUCUUACAGUUUCGUCUTT against Oas3	inactive: 0.146
GGAACAGAGAGUAAAAUCUTT against Map3k7cl	inactive: 0.339
GGACAUGGUCUCCAAACUATT against Pgd	inactive: -1.78
GGCAUGGUGAAUGAAAUUGTT against Calml3	inactive: -0.578
CCAACCAAAGAUGAAUUGUTT against Usp19	inactive: -0.445
UAAUAAAAGGAGGUGGUUCTT against Ube2dnl1	inactive: 0.491
CCCAGCUGGCAUGAUCUUUTT against Pbld1	inactive: 0.979
GGACUUGUCAGCACUGAGCTT against Fcrla	inactive: -0.552
GGAAGAGUGGGAGAAAAUATT against H2-M9	inactive: -1.39
GAGAGAGCAGAGCUUGAGATT against Angptl6	inactive: 1.65

Sequence	z-score
GGGCAACAUUUUUCAGUGCTT against Prox1	inactive: 0.722
GGUUGAAGGCCAAUUCAAATT against Lrrc10	active: 2.94
CCUACUACCUCUGUCAACATT against Nme4	inactive: -1.65
GAUUGUCACCACCUUAAGATT against Chchd5	inactive: -0.964
GCUGAUAGGCACGAGUAUCTT against 4930430F08Rik	inactive: 1.8
CCAUGACCAGGAUGGAUCATT against Cchcr1	inactive: -1.17
GGGAACCUUGCUAUUUGGATT against Gucy2c	inactive: -0.0205
GGAGGAACAAUCAUCUAUATT against Ripk2	inactive: 1.1
GGAUUGACCUCCAAGGACATT against Osgep	inactive: -0.731
CCCAAACUAUGUUCUUGAATT against Tll2	inactive: 0.259
GGGUUUGGAUGCAGCAUCUTT against Gata1	inactive: -1.68
GGACCAGGAUCAGUUGAUCTT against Olfr1406	inactive: -1.55
GGUAUUAAACACCAGCUCUTT against Nsfl1c	inactive: 0.0261
GCAAGUGAGACCUACUGUATT against Syne2	inactive: -0.791
GGGAUGGUGGAGAGAAAGATT against Hsdl1	inactive: 0.496
GGGCACACACUUCAAUUUUTT against Sap18	inactive: 0.301
CCAAUUAGUCACUCUUAGATT against Errfi1	inactive: 0.528
CCAUGAUCGCUAGUGAAGCTT against Mrpl24	inactive: -0.743
GGGUAUCAACCACUUUUUUTT against Serping1	inactive: 2
